Taken from: PubChem BioAssay AID1508597 (Cure First, 2020)

- Assay: 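Knock-downs altering ovarian cancer cell survival with or without PARP inhibitor rucaparib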 (primary screen)
- Cell system: human ovarian carcinoma lines grown from tumours: OCI-P5x (papillary serous) and OCI-C5x (clear cell)
- Reagent: siRNA pool against human genes, 1.25 pmol siRNA per well
- Duration: 72 h or 96 h, depending on the cell culture
- Challenge: rucaparib 20 µM (about IC30) or vehicle, present until read-out
- Measurement: 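ATP luminescence measured at 72 or 96 h according to the culture, then normalised and expressed as percent viability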
- Scale: viability, normalised: higher = more viable cells remaining
- Rule for the call: 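a well counts as a hit if its normalised viability is under 80 percent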
- Calls: active = viability under 80%; inactive = viability 80% or more
The whole screen tested about 2,100 reagents; shown is an unselected part. 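Calls flag viability under 80% in either arm, not effects specific to rucaparib; the reference for percent is not stated.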 A number with no mark means an inactive call. Reagent sequences are not shown. Not stated in the record: the 100% reference.

viability, normalised (%) | gene knocked down | PubChem SID | rucaparib or vehicle | cell line | technical replicate
41.1 (active) | RBBP5 | SID405527232 | Rucaparib | OCI-C5x (clear cell) | 1
48.1 (active) | RBBP5 | SID405527232 | Rucaparib | OCI-C5x (clear cell) | 2
44.4 (active) | RBBP5 | SID405527232 | Rucaparib | OCI-C5x (clear cell) | 3
47.8 (active) | RBBP5 | SID405527232 | Rucaparib | OCI-P5x (serous) | 1
62.6 (active) | RBBP5 | SID405527232 | Rucaparib | OCI-P5x (serous) | 2
60 (active) | RBBP5 | SID405527232 | Rucaparib | OCI-P5x (serous) | 3
42 (active) | RBBP5 | SID405527232 | Vehicle | OCI-C5x (clear cell) | 1
45.8 (active) | RBBP5 | SID405527232 | Vehicle | OCI-C5x (clear cell) | 2
43.5 (active) | RBBP5 | SID405527232 | Vehicle | OCI-C5x (clear cell) | 3
70.2 (active) | RBBP5 | SID405527232 | Vehicle | OCI-P5x (serous) | 1
80.9 | RBBP5 | SID405527232 | Vehicle | OCI-P5x (serous) | 2
103 | RBBP5 | SID405527232 | Vehicle | OCI-P5x (serous) | 3
63 (active) | BCORL1 (BCL6 corepressor like 1) | SID405528028 | Rucaparib | OCI-C5x (clear cell) | 1
33.9 (active) | BCORL1 (BCL6 corepressor like 1) | SID405528028 | Rucaparib | OCI-C5x (clear cell) | 2
42.2 (active) | BCORL1 (BCL6 corepressor like 1) | SID405528028 | Rucaparib | OCI-C5x (clear cell) | 3
53.6 (active) | BCORL1 (BCL6 corepressor like 1) | SID405528028 | Rucaparib | OCI-P5x (serous) | 1
71 (active) | BCORL1 (BCL6 corepressor like 1) | SID405528028 | Rucaparib | OCI-P5x (serous) | 2
75.9 (active) | BCORL1 (BCL6 corepressor like 1) | SID405528028 | Rucaparib | OCI-P5x (serous) | 3
37.8 (active) | BCORL1 (BCL6 corepressor like 1) | SID405528028 | Vehicle | OCI-C5x (clear cell) | 1
41.8 (active) | BCORL1 (BCL6 corepressor like 1) | SID405528028 | Vehicle | OCI-C5x (clear cell) | 2
40.6 (active) | BCORL1 (BCL6 corepressor like 1) | SID405528028 | Vehicle | OCI-C5x (clear cell) | 3
72.8 (active) | BCORL1 (BCL6 corepressor like 1) | SID405528028 | Vehicle | OCI-P5x (serous) | 1
63.5 (active) | BCORL1 (BCL6 corepressor like 1) | SID405528028 | Vehicle | OCI-P5x (serous) | 2
88.7 | BCORL1 (BCL6 corepressor like 1) | SID405528028 | Vehicle | OCI-P5x (serous) | 3
37.3 (active) | SFMBT1 (Scm like with four mbt domains 1) | SID405527291 | Rucaparib | OCI-C5x (clear cell) | 1
46 (active) | SFMBT1 (Scm like with four mbt domains 1) | SID405527291 | Rucaparib | OCI-C5x (clear cell) | 2
46.4 (active) | SFMBT1 (Scm like with four mbt domains 1) | SID405527291 | Rucaparib | OCI-C5x (clear cell) | 3
51.2 (active) | SFMBT1 (Scm like with four mbt domains 1) | SID405527291 | Rucaparib | OCI-P5x (serous) | 1
40 (active) | SFMBT1 (Scm like with four mbt domains 1) | SID405527291 | Rucaparib | OCI-P5x (serous) | 2
56.8 (active) | SFMBT1 (Scm like with four mbt domains 1) | SID405527291 | Rucaparib | OCI-P5x (serous) | 3
51.4 (active) | SFMBT1 (Scm like with four mbt domains 1) | SID405527291 | Vehicle | OCI-C5x (clear cell) | 1
36.7 (active) | SFMBT1 (Scm like with four mbt domains 1) | SID405527291 | Vehicle | OCI-C5x (clear cell) | 2
49.2 (active) | SFMBT1 (Scm like with four mbt domains 1) | SID405527291 | Vehicle | OCI-C5x (clear cell) | 3
64.1 (active) | SFMBT1 (Scm like with four mbt domains 1) | SID405527291 | Vehicle | OCI-P5x (serous) | 1
66.4 (active) | SFMBT1 (Scm like with four mbt domains 1) | SID405527291 | Vehicle | OCI-P5x (serous) | 2
76.7 (active) | SFMBT1 (Scm like with four mbt domains 1) | SID405527291 | Vehicle | OCI-P5x (serous) | 3
49.6 (active) | MAPK12 (mitogen-activated protein kinase 12) | SID405527444 | Rucaparib | OCI-C5x (clear cell) | 1
66.8 (active) | MAPK12 (mitogen-activated protein kinase 12) | SID405527444 | Rucaparib | OCI-C5x (clear cell) | 2
38 (active) | MAPK12 (mitogen-activated protein kinase 12) | SID405527444 | Rucaparib | OCI-C5x (clear cell) | 3
90 | MAPK12 (mitogen-activated protein kinase 12) | SID405527444 | Rucaparib | OCI-P5x (serous) | 1
84.8 | MAPK12 (mitogen-activated protein kinase 12) | SID405527444 | Rucaparib | OCI-P5x (serous) | 2
85.9 | MAPK12 (mitogen-activated protein kinase 12) | SID405527444 | Rucaparib | OCI-P5x (serous) | 3
59.8 (active) | MAPK12 (mitogen-activated protein kinase 12) | SID405527444 | Vehicle | OCI-C5x (clear cell) | 1
51.6 (active) | MAPK12 (mitogen-activated protein kinase 12) | SID405527444 | Vehicle | OCI-C5x (clear cell) | 2
53.7 (active) | MAPK12 (mitogen-activated protein kinase 12) | SID405527444 | Vehicle | OCI-C5x (clear cell) | 3
89.6 | MAPK12 (mitogen-activated protein kinase 12) | SID405527444 | Vehicle | OCI-P5x (serous) | 1
75.7 (active) | MAPK12 (mitogen-activated protein kinase 12) | SID405527444 | Vehicle | OCI-P5x (serous) | 2
86.7 | MAPK12 (mitogen-activated protein kinase 12) | SID405527444 | Vehicle | OCI-P5x (serous) | 3
61 (active) | PIP5K1A (phosphatidylinositol-4-phosphate 5-kinase type 1 alpha) | SID405528574 | Rucaparib | OCI-C5x (clear cell) | 1
69.2 (active) | PIP5K1A (phosphatidylinositol-4-phosphate 5-kinase type 1 alpha) | SID405528574 | Rucaparib | OCI-C5x (clear cell) | 2
71 (active) | PIP5K1A (phosphatidylinositol-4-phosphate 5-kinase type 1 alpha) | SID405528574 | Rucaparib | OCI-C5x (clear cell) | 3
102 | PIP5K1A (phosphatidylinositol-4-phosphate 5-kinase type 1 alpha) | SID405528574 | Rucaparib | OCI-P5x (serous) | 1
79.1 (active) | PIP5K1A (phosphatidylinositol-4-phosphate 5-kinase type 1 alpha) | SID405528574 | Rucaparib | OCI-P5x (serous) | 2
83.5 | PIP5K1A (phosphatidylinositol-4-phosphate 5-kinase type 1 alpha) | SID405528574 | Rucaparib | OCI-P5x (serous) | 3
65.6 (active) | PIP5K1A (phosphatidylinositol-4-phosphate 5-kinase type 1 alpha) | SID405528574 | Vehicle | OCI-C5x (clear cell) | 1
71.8 (active) | PIP5K1A (phosphatidylinositol-4-phosphate 5-kinase type 1 alpha) | SID405528574 | Vehicle | OCI-C5x (clear cell) | 2
71.2 (active) | PIP5K1A (phosphatidylinositol-4-phosphate 5-kinase type 1 alpha) | SID405528574 | Vehicle | OCI-C5x (clear cell) | 3
83.2 | PIP5K1A (phosphatidylinositol-4-phosphate 5-kinase type 1 alpha) | SID405528574 | Vehicle | OCI-P5x (serous) | 1
65.8 (active) | PIP5K1A (phosphatidylinositol-4-phosphate 5-kinase type 1 alpha) | SID405528574 | Vehicle | OCI-P5x (serous) | 2
55.8 (active) | PIP5K1A (phosphatidylinositol-4-phosphate 5-kinase type 1 alpha) | SID405528574 | Vehicle | OCI-P5x (serous) | 3
61.9 (active) | MUC16 (mucin 16, cell surface associated) | SID405526476 | Rucaparib | OCI-C5x (clear cell) | 1
77.9 (active) | MUC16 (mucin 16, cell surface associated) | SID405526476 | Rucaparib | OCI-C5x (clear cell) | 2
47.8 (active) | MUC16 (mucin 16, cell surface associated) | SID405526476 | Rucaparib | OCI-C5x (clear cell) | 3
66.3 (active) | MUC16 (mucin 16, cell surface associated) | SID405526476 | Rucaparib | OCI-P5x (serous) | 1
58.1 (active) | MUC16 (mucin 16, cell surface associated) | SID405526476 | Rucaparib | OCI-P5x (serous) | 2
85.6 | MUC16 (mucin 16, cell surface associated) | SID405526476 | Rucaparib | OCI-P5x (serous) | 3
74.7 (active) | MUC16 (mucin 16, cell surface associated) | SID405526476 | Vehicle | OCI-C5x (clear cell) | 1
75.4 (active) | MUC16 (mucin 16, cell surface associated) | SID405526476 | Vehicle | OCI-C5x (clear cell) | 2
74.8 (active) | MUC16 (mucin 16, cell surface associated) | SID405526476 | Vehicle | OCI-C5x (clear cell) | 3
79.3 (active) | MUC16 (mucin 16, cell surface associated) | SID405526476 | Vehicle | OCI-P5x (serous) | 1
71.9 (active) | MUC16 (mucin 16, cell surface associated) | SID405526476 | Vehicle | OCI-P5x (serous) | 2
71.1 (active) | MUC16 (mucin 16, cell surface associated) | SID405526476 | Vehicle | OCI-P5x (serous) | 3
41.7 (active) | TONSL (tonsoku like, DNA repair protein) | SID405528246 | Rucaparib | OCI-C5x (clear cell) | 1
56.7 (active) | TONSL (tonsoku like, DNA repair protein) | SID405528246 | Rucaparib | OCI-C5x (clear cell) | 2
48.4 (active) | TONSL (tonsoku like, DNA repair protein) | SID405528246 | Rucaparib | OCI-C5x (clear cell) | 3
60.6 (active) | TONSL (tonsoku like, DNA repair protein) | SID405528246 | Rucaparib | OCI-P5x (serous) | 1
55.9 (active) | TONSL (tonsoku like, DNA repair protein) | SID405528246 | Rucaparib | OCI-P5x (serous) | 2
60.3 (active) | TONSL (tonsoku like, DNA repair protein) | SID405528246 | Rucaparib | OCI-P5x (serous) | 3
53.6 (active) | TONSL (tonsoku like, DNA repair protein) | SID405528246 | Vehicle | OCI-C5x (clear cell) | 1
41.4 (active) | TONSL (tonsoku like, DNA repair protein) | SID405528246 | Vehicle | OCI-C5x (clear cell) | 2
45.7 (active) | TONSL (tonsoku like, DNA repair protein) | SID405528246 | Vehicle | OCI-C5x (clear cell) | 3
67.1 (active) | TONSL (tonsoku like, DNA repair protein) | SID405528246 | Vehicle | OCI-P5x (serous) | 1
68.6 (active) | TONSL (tonsoku like, DNA repair protein) | SID405528246 | Vehicle | OCI-P5x (serous) | 2
56.2 (active) | TONSL (tonsoku like, DNA repair protein) | SID405528246 | Vehicle | OCI-P5x (serous) | 3

Single entries from the entries so far:
BCORL1 (BCL6 corepressor like 1) [SID405528028], rucaparib or vehicle Rucaparib, cell line OCI-P5x (serous), technical replicate 2, viability, normalised (%) → 71 (active)
Under “viability, normalised (%)”, TONSL (tonsoku like, DNA repair protein) [SID405528246], rucaparib or vehicle Vehicle, cell line OCI-C5x (clear cell), technical replicate 1 shows 53.6 (active)
BCORL1 (BCL6 corepressor like 1) [SID405528028], rucaparib or vehicle Vehicle, cell line OCI-C5x (clear cell), technical replicate 2, viability, normalised (%) = 41.8 (active)
Under “viability, normalised (%)”, SFMBT1 (Scm like with four mbt domains 1) [SID405527291], rucaparib or vehicle Rucaparib, cell line OCI-C5x (clear cell), technical replicate 1 shows 37.3 (active)
TONSL (tonsoku like, DNA repair protein) [SID405528246], rucaparib or vehicle Rucaparib, cell line OCI-C5x (clear cell), technical replicate 2, viability, normalised (%) = 56.7 (active)
Under “viability, normalised (%)”, RBBP5 [SID405527232], rucaparib or vehicle Rucaparib, cell line OCI-C5x (clear cell), technical replicate 1 is entered as 41.1 (active)
